{"source": "patent US6544994B2", "about": "“Pharmaceutical preparation for treating or preventing cardiovascular or neurological disorders by modulating of the activity of nitric oxide synthase” (Eprov AG, priority 2000, dated 2003)", "assay": "Competitive superoxide trapping (CST) with DEPMPO in HX/XO system, EPR", "format": "biochemical", "conditions": "for superoxide scavenging, times less potent/slower than ascorbic acid: relative to ascorbic acid", "method": "The EPR spectra were recorded at 37° C. on a modified Bruker ESP 300. Spin trap experiments were performed with both HX/XO and eNOS. For HX/XO the solution contained 0.5 mM hypoxanthine, 12.5 mU/ml xanthine oxidase and 50 mM DEPMPO in phosphate buffer (pH 7.4). The eNOS assay contained 250 nM eNOS dimers (0.065 mg protein/ml), 0.5 mM NADPH, 10 μM L-arginine, 1 mM CaCl2, 300 U/ml catmodulin and 50 mM DEPMPO in phosphate buffer (pH 7.4).\nThe reaction rates with superoxide are given by k for the tested substance and kd for the reference compound DEPMPO respectively.", "note": "At least one compound was matched to its structure with a doubt left."}
{"compound": "C[C@H](O)[C@H](O)[C@H]1CNc2nc(N)[nH]c(=O)c2N1", "note": "[BH4, tetrahydrobiopterin]", "values": [{"measurement": "k, reaction rate with superoxide", "setting": "pH 7.4, 37° C., based on kd=80 (Ms)^−1", "value": 150000, "unit": "M/s"}, {"measurement": "superoxide scavenging, times less potent/slower than ascorbic acid", "value": "about 2 fold"}, {"measurement": "superoxide scavenging, times less potent/slower than ascorbic acid", "setting": "listed as Tetrahydrobiopterin (BH4)", "value": "roughly 2 fold"}]}
